Measurements taken from the supplement of paper PMC10849652.
This is one part of the list.

Protein sequences, listed by entry. Tags and fused reporters are not part of them. Lines headed by an entry give the natural chain unless they say otherwise; changes in a name come on top.
UniProt Q7L592: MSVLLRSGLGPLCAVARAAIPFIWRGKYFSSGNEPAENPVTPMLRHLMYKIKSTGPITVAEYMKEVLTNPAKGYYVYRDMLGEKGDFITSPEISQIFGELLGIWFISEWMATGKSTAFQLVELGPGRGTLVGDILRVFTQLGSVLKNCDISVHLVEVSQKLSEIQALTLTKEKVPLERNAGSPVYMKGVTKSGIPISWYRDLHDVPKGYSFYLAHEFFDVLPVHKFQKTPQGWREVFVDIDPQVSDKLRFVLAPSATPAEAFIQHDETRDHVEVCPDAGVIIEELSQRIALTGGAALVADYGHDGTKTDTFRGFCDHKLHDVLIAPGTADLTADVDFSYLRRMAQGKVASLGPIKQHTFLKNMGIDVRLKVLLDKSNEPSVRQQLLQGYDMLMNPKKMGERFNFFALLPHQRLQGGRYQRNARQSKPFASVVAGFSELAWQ
UniProt Q9NX14, whole entry, looked up: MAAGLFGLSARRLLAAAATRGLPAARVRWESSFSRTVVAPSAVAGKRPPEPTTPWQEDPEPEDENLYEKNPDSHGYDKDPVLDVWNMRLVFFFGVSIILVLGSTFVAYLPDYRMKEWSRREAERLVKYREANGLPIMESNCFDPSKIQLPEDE
UniProt Q92859: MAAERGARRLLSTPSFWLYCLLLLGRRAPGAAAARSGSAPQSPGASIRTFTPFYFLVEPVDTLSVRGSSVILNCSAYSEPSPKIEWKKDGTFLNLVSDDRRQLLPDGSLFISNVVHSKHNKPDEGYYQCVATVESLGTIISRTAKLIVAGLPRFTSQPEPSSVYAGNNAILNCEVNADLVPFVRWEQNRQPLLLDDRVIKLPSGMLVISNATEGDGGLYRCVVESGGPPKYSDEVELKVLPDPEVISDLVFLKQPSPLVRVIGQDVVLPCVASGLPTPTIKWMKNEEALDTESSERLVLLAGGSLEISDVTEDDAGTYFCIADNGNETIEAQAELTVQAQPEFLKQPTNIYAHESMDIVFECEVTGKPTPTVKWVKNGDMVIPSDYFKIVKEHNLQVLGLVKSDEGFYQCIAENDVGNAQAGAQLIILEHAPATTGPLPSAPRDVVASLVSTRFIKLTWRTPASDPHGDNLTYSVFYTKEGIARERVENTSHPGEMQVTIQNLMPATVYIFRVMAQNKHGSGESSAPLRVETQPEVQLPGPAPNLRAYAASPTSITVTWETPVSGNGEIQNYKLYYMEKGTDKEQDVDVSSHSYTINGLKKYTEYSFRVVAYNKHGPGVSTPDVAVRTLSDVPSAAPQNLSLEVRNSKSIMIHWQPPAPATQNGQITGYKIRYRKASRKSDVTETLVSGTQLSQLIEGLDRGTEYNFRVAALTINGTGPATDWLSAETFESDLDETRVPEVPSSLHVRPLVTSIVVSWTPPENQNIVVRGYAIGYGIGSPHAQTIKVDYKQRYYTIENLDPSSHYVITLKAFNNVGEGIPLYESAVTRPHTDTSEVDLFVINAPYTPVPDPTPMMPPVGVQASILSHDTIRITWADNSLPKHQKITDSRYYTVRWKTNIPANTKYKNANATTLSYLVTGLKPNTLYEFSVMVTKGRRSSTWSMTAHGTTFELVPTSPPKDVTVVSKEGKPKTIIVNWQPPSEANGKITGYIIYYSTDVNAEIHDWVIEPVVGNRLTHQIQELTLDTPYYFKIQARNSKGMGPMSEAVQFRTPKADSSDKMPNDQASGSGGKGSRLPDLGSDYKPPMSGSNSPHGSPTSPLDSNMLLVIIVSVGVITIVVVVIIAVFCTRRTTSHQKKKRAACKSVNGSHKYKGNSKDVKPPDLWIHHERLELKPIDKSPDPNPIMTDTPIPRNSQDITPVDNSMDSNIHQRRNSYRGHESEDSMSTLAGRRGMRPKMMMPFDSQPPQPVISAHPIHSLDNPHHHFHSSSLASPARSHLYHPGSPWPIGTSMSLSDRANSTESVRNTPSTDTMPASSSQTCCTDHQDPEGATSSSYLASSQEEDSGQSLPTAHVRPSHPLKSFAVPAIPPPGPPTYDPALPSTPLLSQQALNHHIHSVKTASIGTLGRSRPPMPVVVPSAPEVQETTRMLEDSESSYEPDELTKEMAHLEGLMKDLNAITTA
UniProt Q9NVX2: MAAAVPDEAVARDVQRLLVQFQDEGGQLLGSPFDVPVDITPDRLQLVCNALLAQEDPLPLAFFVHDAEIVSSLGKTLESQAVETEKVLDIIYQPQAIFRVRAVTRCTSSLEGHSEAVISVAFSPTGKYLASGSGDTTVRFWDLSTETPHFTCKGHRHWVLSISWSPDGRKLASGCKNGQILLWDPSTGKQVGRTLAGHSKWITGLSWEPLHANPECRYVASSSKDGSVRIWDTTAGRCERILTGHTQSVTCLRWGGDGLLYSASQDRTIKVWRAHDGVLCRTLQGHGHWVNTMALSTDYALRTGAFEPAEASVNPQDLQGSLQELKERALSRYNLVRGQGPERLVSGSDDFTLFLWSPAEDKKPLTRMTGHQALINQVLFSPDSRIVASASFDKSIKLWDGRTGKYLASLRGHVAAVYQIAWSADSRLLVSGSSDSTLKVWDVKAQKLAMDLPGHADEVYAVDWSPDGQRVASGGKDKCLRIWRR
UniProt P21359: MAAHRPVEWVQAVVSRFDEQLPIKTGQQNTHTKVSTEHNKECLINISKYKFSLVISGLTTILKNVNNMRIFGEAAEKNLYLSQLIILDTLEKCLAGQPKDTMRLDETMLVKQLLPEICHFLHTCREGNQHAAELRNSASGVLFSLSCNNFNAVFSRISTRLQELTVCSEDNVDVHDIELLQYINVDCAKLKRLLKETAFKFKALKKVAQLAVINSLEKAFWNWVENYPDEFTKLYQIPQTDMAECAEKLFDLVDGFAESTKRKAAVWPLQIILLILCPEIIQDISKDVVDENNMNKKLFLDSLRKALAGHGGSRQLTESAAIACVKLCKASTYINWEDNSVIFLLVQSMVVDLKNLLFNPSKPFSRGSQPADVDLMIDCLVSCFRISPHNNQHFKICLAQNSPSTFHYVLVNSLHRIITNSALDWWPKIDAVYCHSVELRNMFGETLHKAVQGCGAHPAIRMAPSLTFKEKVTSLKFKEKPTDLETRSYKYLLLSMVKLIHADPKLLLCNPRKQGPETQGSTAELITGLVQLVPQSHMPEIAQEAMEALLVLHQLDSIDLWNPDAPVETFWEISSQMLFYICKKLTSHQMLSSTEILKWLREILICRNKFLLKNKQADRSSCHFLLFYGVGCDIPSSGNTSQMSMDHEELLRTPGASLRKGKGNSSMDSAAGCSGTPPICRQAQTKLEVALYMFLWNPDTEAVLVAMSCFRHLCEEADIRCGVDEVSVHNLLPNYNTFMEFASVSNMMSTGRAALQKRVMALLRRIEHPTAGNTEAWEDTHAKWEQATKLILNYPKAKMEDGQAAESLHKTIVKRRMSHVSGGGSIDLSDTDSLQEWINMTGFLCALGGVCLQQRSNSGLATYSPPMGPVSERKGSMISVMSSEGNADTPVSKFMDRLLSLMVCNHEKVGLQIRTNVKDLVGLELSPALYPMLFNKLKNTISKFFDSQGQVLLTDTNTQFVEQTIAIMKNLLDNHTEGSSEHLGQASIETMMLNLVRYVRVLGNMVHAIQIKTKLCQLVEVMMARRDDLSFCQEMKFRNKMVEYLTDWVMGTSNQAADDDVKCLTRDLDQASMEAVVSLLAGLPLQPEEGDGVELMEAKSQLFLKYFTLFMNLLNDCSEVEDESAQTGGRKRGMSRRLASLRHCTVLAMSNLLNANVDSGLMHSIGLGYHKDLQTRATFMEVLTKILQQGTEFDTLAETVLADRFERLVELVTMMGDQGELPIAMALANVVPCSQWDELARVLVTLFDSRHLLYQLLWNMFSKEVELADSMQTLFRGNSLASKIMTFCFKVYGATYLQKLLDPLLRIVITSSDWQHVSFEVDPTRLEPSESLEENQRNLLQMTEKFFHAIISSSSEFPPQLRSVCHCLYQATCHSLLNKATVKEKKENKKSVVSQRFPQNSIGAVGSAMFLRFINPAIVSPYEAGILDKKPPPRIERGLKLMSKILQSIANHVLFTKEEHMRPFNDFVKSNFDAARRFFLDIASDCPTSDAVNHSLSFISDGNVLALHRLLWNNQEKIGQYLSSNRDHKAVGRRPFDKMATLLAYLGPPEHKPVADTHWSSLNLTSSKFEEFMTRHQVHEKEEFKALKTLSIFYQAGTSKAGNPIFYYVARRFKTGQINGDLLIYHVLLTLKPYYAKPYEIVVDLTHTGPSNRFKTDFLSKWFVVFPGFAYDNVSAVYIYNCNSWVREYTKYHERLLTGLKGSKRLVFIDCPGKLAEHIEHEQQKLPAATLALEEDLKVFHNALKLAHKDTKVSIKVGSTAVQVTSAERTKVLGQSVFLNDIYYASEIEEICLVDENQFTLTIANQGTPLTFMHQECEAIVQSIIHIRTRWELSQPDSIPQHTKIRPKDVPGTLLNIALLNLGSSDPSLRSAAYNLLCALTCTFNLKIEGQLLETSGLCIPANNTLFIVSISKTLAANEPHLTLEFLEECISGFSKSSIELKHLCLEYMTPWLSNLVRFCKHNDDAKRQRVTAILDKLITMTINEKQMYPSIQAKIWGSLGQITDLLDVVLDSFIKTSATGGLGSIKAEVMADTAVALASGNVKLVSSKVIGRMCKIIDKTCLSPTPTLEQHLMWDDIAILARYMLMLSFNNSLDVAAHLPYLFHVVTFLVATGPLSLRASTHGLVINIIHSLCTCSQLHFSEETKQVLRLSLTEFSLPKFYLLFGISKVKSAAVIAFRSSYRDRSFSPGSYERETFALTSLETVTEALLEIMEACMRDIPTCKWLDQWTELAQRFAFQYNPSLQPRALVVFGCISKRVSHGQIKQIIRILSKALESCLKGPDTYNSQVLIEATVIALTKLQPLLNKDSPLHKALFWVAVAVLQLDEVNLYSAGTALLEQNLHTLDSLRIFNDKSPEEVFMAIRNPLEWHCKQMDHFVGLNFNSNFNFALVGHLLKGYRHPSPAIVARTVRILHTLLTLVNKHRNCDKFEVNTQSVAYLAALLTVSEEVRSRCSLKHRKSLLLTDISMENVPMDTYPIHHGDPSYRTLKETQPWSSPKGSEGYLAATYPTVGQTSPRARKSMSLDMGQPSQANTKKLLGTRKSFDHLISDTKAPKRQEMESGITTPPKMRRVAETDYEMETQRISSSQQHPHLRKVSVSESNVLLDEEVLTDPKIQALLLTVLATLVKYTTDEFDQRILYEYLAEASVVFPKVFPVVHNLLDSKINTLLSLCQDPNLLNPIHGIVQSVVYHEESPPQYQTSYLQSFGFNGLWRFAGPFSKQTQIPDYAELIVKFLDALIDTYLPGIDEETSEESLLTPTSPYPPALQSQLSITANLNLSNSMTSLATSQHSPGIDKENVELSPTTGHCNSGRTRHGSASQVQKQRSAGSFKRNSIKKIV
UniProt Q96IV0: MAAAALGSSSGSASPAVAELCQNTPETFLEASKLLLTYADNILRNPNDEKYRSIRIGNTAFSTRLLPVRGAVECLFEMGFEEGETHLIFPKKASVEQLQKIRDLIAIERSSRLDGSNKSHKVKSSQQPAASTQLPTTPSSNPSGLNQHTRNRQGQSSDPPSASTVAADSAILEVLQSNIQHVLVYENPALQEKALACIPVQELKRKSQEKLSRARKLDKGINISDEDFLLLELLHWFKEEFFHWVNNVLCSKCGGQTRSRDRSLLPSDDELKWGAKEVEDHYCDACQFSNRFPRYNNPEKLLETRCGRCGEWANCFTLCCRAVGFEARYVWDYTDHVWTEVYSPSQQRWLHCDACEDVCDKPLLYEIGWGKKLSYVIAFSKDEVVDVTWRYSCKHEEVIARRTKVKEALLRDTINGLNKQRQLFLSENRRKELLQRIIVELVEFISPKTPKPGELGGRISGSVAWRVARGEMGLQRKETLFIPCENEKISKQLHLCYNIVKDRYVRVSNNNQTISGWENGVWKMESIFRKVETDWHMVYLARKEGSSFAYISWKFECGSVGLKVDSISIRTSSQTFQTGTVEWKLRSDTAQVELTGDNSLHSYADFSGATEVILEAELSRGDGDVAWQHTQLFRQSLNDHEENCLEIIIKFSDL
UniProt Q9NXR1: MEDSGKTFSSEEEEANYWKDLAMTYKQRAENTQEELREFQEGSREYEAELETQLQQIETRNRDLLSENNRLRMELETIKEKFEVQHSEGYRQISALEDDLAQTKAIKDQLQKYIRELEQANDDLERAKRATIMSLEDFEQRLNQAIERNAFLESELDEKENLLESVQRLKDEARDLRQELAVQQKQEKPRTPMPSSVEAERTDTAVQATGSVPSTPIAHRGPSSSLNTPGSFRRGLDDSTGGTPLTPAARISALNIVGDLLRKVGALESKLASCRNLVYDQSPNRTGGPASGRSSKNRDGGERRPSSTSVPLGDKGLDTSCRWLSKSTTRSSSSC
UniProt O75380, whole entry, looked up: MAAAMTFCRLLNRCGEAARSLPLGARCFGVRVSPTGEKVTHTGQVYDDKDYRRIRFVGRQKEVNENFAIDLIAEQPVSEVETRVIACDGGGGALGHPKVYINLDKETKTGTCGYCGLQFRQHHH

What was measured:
Test in all cases: log2 fold change, soluble protein after heating vs DMSO (PISA); higher = thermal stabilisation; K562 lysate, 10 uM; active = over 0.2 and 3.5 SD of the protein, either way, in both replicates (recomputed)
alvocidib = compound: CN1CC[C@H](c2c(O)cc(O)c3c(=O)cc(-c4ccccc4Cl)oc23)[C@H](O)C1 [alvocidib]
Procedure, shortened: (§1)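 Thermal stability, expressed as log-two fold change relative to solvent controls, is given from duplicates. Crude K562 extract in PBS pH 7.4 with 1 mM MgCl2, at 1 mg/mL protein, was treated with 10 μM compound for 30 min and heated in aliquots for 3 min across 48°C-58°C. After pooling, adjustment to 0.5% NP-40 at 4°C and centrifugation at 21,000xg for 90 min, supernatant protein was measured by TMTpro 16plex LC-MS/MS with channel sums equalised.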

Tubastatin A = compound: CN1CCc2c(c3ccccc3n2Cc2ccc(C(=O)NO)cc2)C1 [Tubastatin A]
Procedure, shortened: as §1

[1] = compound: CNC(=O)C1=CC=CC=C1NC2=NC(=NC=C2Cl)NC3=C(C=C(C=C3)N4CCOCC4)OC
Procedure, shortened: as §1

defactinib = compound: CNC(=O)c1ccc(Nc2ncc(C(F)(F)F)c(NCc3nccnc3N(C)S(C)(=O)=O)n2)cc1 [defactinib]
Procedure, shortened: as §1

[2] = compound: CNc1nc(-c2ccc3c(N)n[nH]c3c2)cc(N2C[C@@H](C(=O)NC3CCCCC3)CC[C@H]2C)n1
Procedure, shortened: as §1

encorafenib = compound: COC(=O)N[C@@H](C)CNc1nccc(-c2cn(C(C)C)nc2-c2cc(Cl)cc(NS(C)(=O)=O)c2F)n1 [encorafenib]
Procedure, shortened: as §1

[3] = compound: COC(=O)[C@H](CCSC)NC(=O)C1=C(C=C(C=C1)NC[C@H](CS)N)C2=CC=CC=C2
Procedure, shortened: as §1

alisertib = compound: COc1cc(Nc2ncc3c(n2)-c2ccc(Cl)cc2C(c2c(F)cccc2OC)=NC3)ccc1C(=O)O [alisertib]
Procedure, shortened: as §1

[4] = compound: COc1cc2nc(-c3cc(F)ccc3O)nc(N[C@@H]3CNC[C@H]3C(C)(C)O)c2cc1OC
Procedure, shortened: as §1

gefitinib = compound: COc1cc2ncnc(Nc3ccc(F)c(Cl)c3)c2cc1OCCCN1CCOCC1 [gefitinib]
Procedure, shortened: as §1

Measured: log2 fold change

NDUFAF7 (UniProt Q7L592)
inactive: alvocidib 0.025 | Tubastatin A -0.094 | [1] 0.028 | defactinib 0.048 | [2] 0.011 | encorafenib 0.025 | [3] -0.062 | alisertib -0.014 | [4] 0.012 | gefitinib 0.02

NFX1 (UniProt Q12986)
inactive: alvocidib 0.011 | Tubastatin A 0.05 | [1] -0.028 | defactinib -0.046 | [2] -0.004 | encorafenib -0.13 | [3] 0.003 | alisertib -0.045 | [4] -0.001 | gefitinib -0.093

NDUFA7 (UniProt M0R0N0)
inactive: alvocidib -0.498

NDUFB10 (UniProt O96000)
inactive: alvocidib 0.014 | Tubastatin A 0.057 | [1] -0.016 | defactinib 0.021 | [2] 0.026 | encorafenib -0.01 | [3] 0.008 | alisertib 0.034 | [4] -0.014 | gefitinib -0.033

NDRG3 (UniProt Q9UGV2)
inactive: alvocidib 0.015 | Tubastatin A -0.033 | [1] 0.018 | defactinib -0.041 | [2] 0.014 | encorafenib -0.003 | [3] 0.055 | alisertib -0.002 | [4] 0.005 | gefitinib -0.049

NELFB isoform 2 (UniProt Q8WX92)
inactive: alvocidib -0.012 | Tubastatin A -0.057 | [1] 0.017 | defactinib -0.032 | [2] 0.015 | encorafenib 0.015 | [3] 0.017 | alisertib -0.009 | [4] -0.014 | gefitinib -0.018

NDUFB11 isoform 2 (UniProt Q9NX14)
inactive: alvocidib 0.035 | Tubastatin A 0.09 | [1] -0.003 | defactinib 0.014 | [2] 0.048 | encorafenib 0 | [3] -0.087 | alisertib 0.03 | [4] -0.021 | gefitinib -0.117

NEDD4L (UniProt Q96PU5)
inactive: alvocidib 0.024 | Tubastatin A 0.067 | [1] -0.022 | defactinib -0.013 | [2] -0.066 | encorafenib 0.019 | [3] -0.101 | alisertib 0.033 | [4] 0 | gefitinib -0.001

NECAP2 (UniProt Q9NVZ3)
inactive: alvocidib 0.002 | Tubastatin A 0.039 | [1] -0.012 | defactinib -0.023 | [2] 0.012 | encorafenib 0.031 | [3] -0.02 | alisertib -0.012 | [4] 0.006 | gefitinib -0.056

NEO1 (UniProt Q92859)
inactive: alvocidib -0.192

NDUFAB1 (UniProt O14561)
inactive: alvocidib 0.044 | Tubastatin A 0.064 | [1] 0.035 | defactinib 0.026 | [2] 0.039 | encorafenib -0.009 | [3] -0.117 | alisertib -0.052 | [4] 0.024 | gefitinib -0.095

NLE1 (UniProt Q9NVX2)
inactive: alvocidib -0.01 | Tubastatin A -0.026 | [1] -0.002 | defactinib -0.031 | [2] -0.032 | encorafenib 0.033 | [3] -0.056 | alisertib 0.01 | [4] -0.005 | gefitinib -0.051

NDUFA6 (UniProt P56556)
inactive: alvocidib 0.054 | Tubastatin A 0.15 | [1] -0.072 | defactinib -0.046 | [2] 0.001 | encorafenib -0.011 | [3] 0.063 | alisertib 0.019 | [4] -0.008 | gefitinib -0.081

NKTR (UniProt P30414)
inactive: alvocidib -0.256 | Tubastatin A -0.028 | [1] 0.036 | defactinib -0.092 | [2] 0.24 | encorafenib 0.068 | [3] -0.088 | alisertib -0.029 | [4] 0.129 | gefitinib -0.006

NF1 (UniProt P21359)
inactive: alvocidib 0.03 | Tubastatin A -0.098 | [1] 0.029 | defactinib 0.012 | [2] 0.009 | encorafenib 0.026 | [3] -0.267 | alisertib 0.03 | [4] 0.006 | gefitinib 0.058

NGLY1 (UniProt Q96IV0)
inactive: alvocidib -0.041 | Tubastatin A -0.089 | [1] -0.013 | defactinib 0.022 | [2] 0 | encorafenib -0.009 | [3] 0.111 | alisertib 0.002 | [4] 0.001 | gefitinib -0.044

NDUFV2 (UniProt P19404)
inactive: alvocidib -0.02 | Tubastatin A 0.029 | [1] -0.023 | defactinib 0.024 | [2] 0.002 | encorafenib 0.016 | [3] -0.046 | alisertib -0.027 | [4] -0.003 | gefitinib 0.053

NKAP (UniProt Q8N5F7)
inactive: alvocidib -0.074 | Tubastatin A -0.1 | [1] -0.208 | defactinib -0.164 | [2] 0.122 | encorafenib 0.154 | [3] -0.046 | alisertib -0.019 | [4] 0.149 | gefitinib 0.023

NEMF (UniProt O60524)
inactive: alvocidib 0.001 | Tubastatin A -0.03 | [1] -0.002 | defactinib 0.031 | [2] 0.047 | encorafenib 0.048 | [3] 0.032 | alisertib 0.038 | [4] -0.013 | gefitinib -0.003

NDE1 isoform 1 (UniProt Q9NXR1)
inactive: alvocidib -0.064 | Tubastatin A 0.02 | [1] 0.014 | defactinib 0.023 | [2] 0.018 | encorafenib 0.057 | [3] -0.09 | alisertib 0.013 | [4] 0.017 | gefitinib 0.041

NDUFA10 (UniProt O95299)
inactive: alvocidib 0.048 | Tubastatin A -0.028 | [1] -0.044 | defactinib 0.029 | [2] -0.043 | encorafenib -0.011 | [3] 0.112 | alisertib 0.105 | [4] 0.124 | gefitinib -0.041

NDEL1 isoform 2 (UniProt Q9GZM8)
inactive: alvocidib -0.011 | Tubastatin A 0.083 | [1] 0.097 | defactinib 0.046 | [2] 0.012 | encorafenib 0.05 | [3] -0.082 | alisertib -0.007 | [4] 0 | gefitinib -0.017

NFIC (UniProt P08651)
inactive: alvocidib -0.103 | Tubastatin A -0.104 | [1] 0.078 | defactinib -0.153 | [2] -0.048 | encorafenib 0.121 | [3] -0.025 | alisertib 0 | [4] -0.025 | gefitinib 0.117

Quoted from the listing (two entries):
NDUFAB1 (UniProt O14561)
inactive: alvocidib 0.044 | Tubastatin A 0.064 | [1] 0.035 | defactinib 0.026 | [2] 0.039 | encorafenib -0.009 | [3] -0.117 | alisertib -0.052 | [4] 0.024 | gefitinib -0.095

NLE1 (UniProt Q9NVX2)
inactive: alvocidib -0.01 | Tubastatin A -0.026 | [1] -0.002 | defactinib -0.031 | [2] -0.032 | encorafenib 0.033 | [3] -0.056 | alisertib 0.01 | [4] -0.005 | gefitinib -0.051

Further records.

NEDD4 isoform 4 (UniProt P46934)
inactive: alvocidib 0.006 | Tubastatin A 0.169 | [1] 0.016 | defactinib 0.025 | [2] -0.037 | encorafenib 0.017 | [3] -0.045 | alisertib 0.007 | [4] 0.018 | gefitinib -0.022

NDUFS6 (UniProt O75380)
inactive: alvocidib 0.013 | Tubastatin A 0.084 | [1] -0.003 | defactinib 0.013 | [2] -0.001 | encorafenib -0.025 | [3] -0.033 | alisertib 0.033 | [4] -0.005 | gefitinib -0.088

NFKB2 (UniProt Q00653)
inactive: alvocidib 0.011 | Tubastatin A -0.103 | [1] 0.021 | defactinib -0.016 | [2] -0.042 | encorafenib 0.081 | [3] 0.101 | alisertib 0.01 | [4] -0.021 | gefitinib -0.015

NDUFB7 (UniProt P17568)
inactive: alvocidib 0.022 | Tubastatin A 0.181 | [1] -0.007 | defactinib 0.012 | [2] 0.151 | encorafenib -0.038 | [3] -0.034 | alisertib 0.042 | [4] -0.044 | gefitinib -0.022

NFKBIB (UniProt Q15653)
inactive: alvocidib -0.146 | Tubastatin A -0.077 | [1] 0.053 | defactinib -0.007 | [2] -0.006 | encorafenib 0.006 | [3] 0.06 | alisertib 0 | [4] -0.031 | gefitinib 0.064

NDUFA11 (UniProt Q86Y39)
inactive: alvocidib 0.014 | Tubastatin A -0.02 | [1] 0.026 | defactinib 0.028 | [2] -0.016 | encorafenib 0.03 | [3] 0.026 | alisertib -0.019 | [4] 0.01 | gefitinib 0.021

NENF (UniProt Q9UMX5)
inactive: alvocidib 0.03 | Tubastatin A 0.033 | [1] -0.03 | defactinib 0.024 | [2] 0.01 | encorafenib -0.02 | [3] -0.002 | alisertib 0.054 | [4] 0.018 | gefitinib 0.01

NFYB (UniProt P25208)
inactive: alvocidib -0.009 | Tubastatin A 0.017 | [1] -0.019 | defactinib -0.038 | [2] -0.035 | encorafenib 0.036 | [3] -0.01 | alisertib -0.032 | [4] 0.006 | gefitinib -0.021
